{
  "source": "patent US20130035361A1",
  "about": "“USE OF ERGOTHIONEINE AS A PRESERVATIVE IN FOODS AND BEVERAGES” (priority 2007, published 2013)",
  "experiment": "Taste of wine / food and beverages after storage",
  "conditions": "Pinot noir wines, SO2 replaced in whole or in part at bottling; after 18 months of storage",
  "data": [
    {"smiles": "C[N+](C)(C)[C@@H](Cc1c[nH]c(=S)[nH]1)C(=O)[O-]", "note": "[L-ergothioneine]", "values": [
      {"measurement": "impact on taste of the resultant wine", "result": "did not result in any deleterious impact on taste"}
    ]}
  ]
}
